Measured values taken from article PMC12073449, “Development of a Mechanism of Action-Reflective Cell-Based Reporter Gene Assay for Measuring Bioactivities of Therapeutic Glucagon-like Peptide-2 Analogues” (Molecules, 2025).

Tested on: HEK293-GLP-2R-Luc cells

For “His-Gly-Asp-Gly-Ser-Phe-Ser-Asp-Glu-Met-Asn-Thr-Ile-Leu-Asp-Asn-Leu-Ala-Ala-Arg-Asp-Phe-Ile-Asn-Trp-Leu-Ile-Gln-Thr-Lys-Ile-Thr-Asp [teduglutide, [Gly2] hGLP-2 (1–33)]”, the “log2 (TD/Ctrl)” value (gene ACTA2) was −1.172, the “log2 (TD/Ctrl)” value (gene ADAMTSL1) was 2.102 and the “log2 (TD/Ctrl)” value (gene AHR) was 1.187. For the same substance, the “log2 (TD/Ctrl)” value (gene BMPER) was 2.761, the “log2 (TD/Ctrl)” value (gene C11orf96) was 1.666 and the “log2 (TD/Ctrl)” value (gene CACNB2) was 1.036. The “log2 (TD/Ctrl)” value (gene CALCB) was 2.075, the “log2 (TD/Ctrl)” value (gene CARMIL2) was 1.478 and the “log2 (TD/Ctrl)” value (gene CCN2) was 1.203. For the same substance, the “log2 (TD/Ctrl)” value (gene CD24) was 1.239, the “log2 (TD/Ctrl)” value (gene CD55) was 1.135 and the “log2 (TD/Ctrl)” value (gene CGA) was 6.563. For the same substance, the “log2 (TD/Ctrl)” value (gene CHGB) was 3.025, the “log2 (TD/Ctrl)” value (gene CLSTN2) was −1.063 and the “log2 (TD/Ctrl)” value (gene COL1A1) was 1.489. For the same substance, the “log2 (TD/Ctrl)” value (gene CREM) was 1.511, the “log2 (TD/Ctrl)” value (gene CXCL8) was 1.295 and the “log2 (TD/Ctrl)” value (gene CYP4 × 1) was −1.144. For the same substance, the “log2 (TD/Ctrl)” value (gene DAB1) was 2.622, the “log2 (TD/Ctrl)” value (gene DNER) was 3.336 and the “log2 (TD/Ctrl)” value (gene DUSP1) was 1.044. The “log2 (TD/Ctrl)” value (gene DUSP4) was 1.424, the “log2 (TD/Ctrl)” value (gene DUSP6) was 1.617 and the “log2 (TD/Ctrl)” value (gene ECEL1) was 1.362. The “log2 (TD/Ctrl)” value (gene EMILIN2) was 1.218, the “log2 (TD/Ctrl)” value (gene ETV4) was 3.755 and the “log2 (TD/Ctrl)” value (gene ETV5) was 2.054. For the same substance, the “log2 (TD/Ctrl)” value (gene FAM43A) was 1.109, the “log2 (TD/Ctrl)” value (gene FOSL1) was 1.929 and the “log2 (TD/Ctrl)” value (gene GCNA) was 1.616. For the same substance, the “log2 (TD/Ctrl)” value (gene GEM) was 1.149, the “log2 (TD/Ctrl)” value (gene GLA) was 1.223 and the “log2 (TD/Ctrl)” value (gene GPR3) was 1.963. For the same substance, the “log2 (TD/Ctrl)” value (gene HMOX1) was −1.207, the “log2 (TD/Ctrl)” value (gene IER3) was 1.413 and the “log2 (TD/Ctrl)” value (gene INHBA) was 2.909. For the same substance, the “log2 (TD/Ctrl)” value (gene INPP5D) was −2.362, the “log2 (TD/Ctrl)” value (gene INSM1) was 1.381 and the “log2 (TD/Ctrl)” value (gene JMJD7-PLA2G4B) was −3.917. The “log2 (TD/Ctrl)” value (gene LIPG) was 1.309, the “log2 (TD/Ctrl)” value (gene LOC102724428) was 1.465 and the “log2 (TD/Ctrl)” value (gene LOC124901228) was −1.035. For the same substance, the “log2 (TD/Ctrl)” value (gene MAFF) was 1.865, the “log2 (TD/Ctrl)” value (gene MN1) was 1.083 and the “log2 (TD/Ctrl)” value (gene MYOM2) was 1.131. The “log2 (TD/Ctrl)” value (gene NAV2) was 1.099, the “log2 (TD/Ctrl)” value (gene NDRG1) was 1.067 and the “log2 (TD/Ctrl)” value (gene NR4A1) was 2.868. The “log2 (TD/Ctrl)” value (gene NR4A2) was 2.397, the “log2 (TD/Ctrl)” value (gene NR4A3) was 1.676 and the “log2 (TD/Ctrl)” value (gene NTS) was 3.486. The “log2 (TD/Ctrl)” value (gene PAPPA) was 1.666, the “log2 (TD/Ctrl)” value (gene PCK1) was 2.587 and the “log2 (TD/Ctrl)” value (gene PCSK1) was 4.992. For the same substance, the “log2 (TD/Ctrl)” value (gene PDE3A) was 2.656, the “log2 (TD/Ctrl)” value (gene PDE4B) was 1.541 and the “log2 (TD/Ctrl)” value (gene PDE4D) was 1.03. For the same substance, the “log2 (TD/Ctrl)” value (gene PDE7B) was 1.707, the “log2 (TD/Ctrl)” value (gene PDE10A) was 1.35 and the “log2 (TD/Ctrl)” value (gene PDK4) was 1.496. The “log2 (TD/Ctrl)” value (gene PPEF1) was 1.489, the “log2 (TD/Ctrl)” value (gene PTP4A1) was 1.072 and the “log2 (TD/Ctrl)” value (gene RPRM) was 1.289. For the same substance, the “log2 (TD/Ctrl)” value (gene SCARA5) was 1.828, the “log2 (TD/Ctrl)” value (gene SERPINE2) was 1.143 and the “log2 (TD/Ctrl)” value (gene SGK1) was 1.306. For the same substance, the “log2 (TD/Ctrl)” value (gene SIK1) was 1.314, the “log2 (TD/Ctrl)” value (gene SLC6A17) was 1.471 and the “log2 (TD/Ctrl)” value (gene SMOX) was 1.374. The “log2 (TD/Ctrl)” value (gene SNAP25) was 1.562, the “log2 (TD/Ctrl)” value (gene SPRY4) was 1.6 and the “log2 (TD/Ctrl)” value (gene SV2C) was 6.783. For the same substance, the “log2 (TD/Ctrl)” value (gene SYAP1) was 1.387, the “log2 (TD/Ctrl)” value (gene SYT4) was 2.682 and the “log2 (TD/Ctrl)” value (gene TAC1) was 2.759. The “log2 (TD/Ctrl)” value (gene TCIM) was 4.105, the “log2 (TD/Ctrl)” value (gene TENT5A) was 1.411 and the “log2 (TD/Ctrl)” value (gene TNC) was 1.312. For the same substance, the “log2 (TD/Ctrl)” value (gene TSC22D3) was 1.013, the “log2 (TD/Ctrl)” value (gene UBE2QL1) was 2.108 and the “log2 (TD/Ctrl)” value (gene UGT3A1) was 3.442. The “log2 (TD/Ctrl)” value (gene USH1C) was 2.824 and the “log2 (TD/Ctrl)” value (gene VGF) was 2.119.

Where two headings read alike, the source gives them in different places.
